Counter-ions that a name gives are not always drawn.
Test system: 60 cell lines in the NCI assay
Experiment: Standard COMPARE analysis of compound 9c against standard agents
Details: COMPARE correlation of the standard agent with compound 9c (ND-6732)

COc1cc2cc(c1Cl)N(C)C(=O)C[C@H](OC(=O)[C@H](C)N(C)C(C)=O)[C@]1(C)O[C@H]1[C@H](C)[C@@H]1C[C@@](O)(NC(=O)O1)[C@H](OC)/C=C/C=C(\C)C2 [Maytansine]
Correlation, Standard Agents TGI: 0.611

CC(=O)O[C@H]1C(=O)[C@@]2(C)[C@H]([C@H](OC(=O)c3ccccc3)[C@]3(O)C[C@H](OC(=O)[C@H](O)[C@@H](NC(=O)c4ccccc4)c4ccccc4)C(C)=C1C3(C)C)[C@]1(OC(C)=O)CO[C@@H]1C[C@@H]2O [Paclitaxel]
Correlation, Standard Agents TGI: 0.617

CC[C@]1(O)C[C@@H]2CN(CCc3c([nH]c4ccccc34)[C@@](C(=O)OC)(c3cc4c(cc3OC)N(C)[C@H]3[C@@](O)(C(=O)OC)[C@H](OC(C)=O)[C@]5(CC)C=CCN6CC[C@]43[C@@H]65)C2)C1 [Vinblastine Sulfate]
Correlation, Standard Agents TGI: 0.615
